Data on 1 compound can be found in publication PMC4021451 (Journal of medicinal chemistry, 2012).

In assay [1] the test system is A549 (non-small-cell lung carcinoma) cells. Briefly: MTT cytotoxicity assay, A549 cells. In kind it is cell-based, human. As to conditions: read-out: IC50 A549, 96 h exposure, mean ± SD. In a few lines: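 Cells were seeded in MEM at 1.5 × 10^3 (CH1), 4.0 × 10^3 (A549) or 2.5 × 10^3 (SW480) per well, given 24 h to resume exponential growth, then exposed to serial dilutions for 96 h. Medium was replaced with RPMI 1640 plus MTT in PBS (5 mg/mL solution) for 4 h, then DMSO. OD was read at 550 nm. At least three independent experiments were run, with triplicates per concentration.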

Assay [2] deals with A2780 (ovarian carcinoma) cells. Briefly: EZ4U viability assay in resistance models, A2780. In kind it is cell-based. As to conditions: read-out: IC50 A2780, 96 h exposure. In a few lines: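 Cells were seeded at 2 × 10^3 per well and allowed to recover for 24 h. Test compound was then added in growth medium and exposed for 96 h. Viable cell proportion was read with the EZ4U kit. Media, all with 10% FBS: SW1573 and 2R120 in DMEM, A2780 and A2780/cis in RPMI 1640, P31 in MEM. Cells were grown at 37 °C in 5% CO2.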

Structures are written as SMILES.

For `N.N.[Cl][Pt][Cl]` [cisplatin], the IC50 in assay [1] turned out to be 1300 ± 400 nM; in assay [2] it was 700 ± 20 nM.
